Measurements published in publication PMC5824891.
Results are given in words; binding and its absence hold for the method and conditions named. In cells and extracts the contact can be indirect. Where a sequence is shown, tags or fusion partners need not be part of it.

T1: GFP-tagged Vps8 (UniProt Q8N3P4)
T1 sequence: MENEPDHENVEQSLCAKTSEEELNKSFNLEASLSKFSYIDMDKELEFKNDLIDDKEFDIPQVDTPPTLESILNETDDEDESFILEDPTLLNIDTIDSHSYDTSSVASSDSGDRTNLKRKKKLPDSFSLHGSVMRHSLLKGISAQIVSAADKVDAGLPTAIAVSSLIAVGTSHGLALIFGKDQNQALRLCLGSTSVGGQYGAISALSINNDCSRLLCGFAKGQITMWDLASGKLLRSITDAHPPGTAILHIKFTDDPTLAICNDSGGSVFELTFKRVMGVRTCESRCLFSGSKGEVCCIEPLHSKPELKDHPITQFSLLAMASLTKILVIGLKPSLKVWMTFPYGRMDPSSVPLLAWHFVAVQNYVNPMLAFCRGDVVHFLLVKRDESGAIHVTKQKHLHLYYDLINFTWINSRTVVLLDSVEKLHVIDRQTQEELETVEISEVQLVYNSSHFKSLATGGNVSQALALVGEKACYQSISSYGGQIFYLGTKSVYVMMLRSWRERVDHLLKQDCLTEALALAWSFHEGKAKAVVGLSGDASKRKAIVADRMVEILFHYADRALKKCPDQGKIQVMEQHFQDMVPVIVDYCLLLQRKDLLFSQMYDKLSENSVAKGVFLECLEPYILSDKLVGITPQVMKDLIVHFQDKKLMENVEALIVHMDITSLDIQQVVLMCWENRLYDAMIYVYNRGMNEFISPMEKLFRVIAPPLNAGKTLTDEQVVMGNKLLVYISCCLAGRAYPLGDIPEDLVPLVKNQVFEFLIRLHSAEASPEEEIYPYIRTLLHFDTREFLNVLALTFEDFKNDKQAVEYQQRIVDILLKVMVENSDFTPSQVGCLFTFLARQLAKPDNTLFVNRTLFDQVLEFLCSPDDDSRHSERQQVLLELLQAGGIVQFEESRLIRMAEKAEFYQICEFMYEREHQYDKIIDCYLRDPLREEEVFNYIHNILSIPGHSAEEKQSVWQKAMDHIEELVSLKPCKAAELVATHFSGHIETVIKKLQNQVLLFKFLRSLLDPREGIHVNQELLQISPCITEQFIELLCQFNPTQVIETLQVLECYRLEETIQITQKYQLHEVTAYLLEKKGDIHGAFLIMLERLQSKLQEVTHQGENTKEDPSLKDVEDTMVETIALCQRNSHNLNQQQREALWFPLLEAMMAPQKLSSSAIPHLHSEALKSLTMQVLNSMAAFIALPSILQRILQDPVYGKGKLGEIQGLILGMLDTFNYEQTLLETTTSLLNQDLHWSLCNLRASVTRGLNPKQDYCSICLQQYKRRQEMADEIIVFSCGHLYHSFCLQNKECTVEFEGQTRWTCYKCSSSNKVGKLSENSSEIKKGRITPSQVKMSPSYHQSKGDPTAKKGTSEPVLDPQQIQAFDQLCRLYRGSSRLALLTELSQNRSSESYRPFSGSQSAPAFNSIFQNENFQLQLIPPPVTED

T2: GFP-tagged Vps33A (UniProt Q96AX1)
T2 sequence: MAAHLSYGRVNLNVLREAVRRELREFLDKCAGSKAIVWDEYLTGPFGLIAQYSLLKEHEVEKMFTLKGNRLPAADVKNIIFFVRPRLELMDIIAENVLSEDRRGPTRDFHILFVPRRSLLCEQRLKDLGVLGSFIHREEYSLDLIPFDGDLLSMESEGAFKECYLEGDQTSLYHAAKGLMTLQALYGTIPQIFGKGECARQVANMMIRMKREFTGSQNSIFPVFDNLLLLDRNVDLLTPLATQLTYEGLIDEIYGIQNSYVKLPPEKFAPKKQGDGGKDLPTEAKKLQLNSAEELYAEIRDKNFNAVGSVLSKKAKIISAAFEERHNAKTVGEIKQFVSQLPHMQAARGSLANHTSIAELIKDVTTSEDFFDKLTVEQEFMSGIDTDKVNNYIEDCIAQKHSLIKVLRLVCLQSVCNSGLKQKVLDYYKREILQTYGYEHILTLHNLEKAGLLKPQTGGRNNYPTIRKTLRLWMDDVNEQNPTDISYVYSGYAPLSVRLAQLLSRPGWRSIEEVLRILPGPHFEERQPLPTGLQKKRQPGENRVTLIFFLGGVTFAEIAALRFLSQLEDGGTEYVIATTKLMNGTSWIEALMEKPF

B1: HA-VIPAS39 (protein, UniProt Q9H9C1 1-493)
chain: MNRTKGDEEEYWNSSKFKAFTFDDEDDELSQLKESKRAVNSLRDFVDDDDDDDLERVSWSGEPVGSISWSIRETAGNSGSTHEGREQLKSRNSFSSYAQLPKPTSTYSLSSFFRGRTRPGSFQSLSDALSDTPAKSYAPELGRPKGEYRDYSNDWSPSDTVRRLRKGKVCSLERFRSLQDKLQLLEEAVSMHDGNVITAVLIFLKRTLSKEILFRELEVRQVALRHLIHFLKEIGDQKLLLDLFRFLDRTEELALSHYREHLNIQDPDKRKEFLKTCVGLPFSAEDSAHIQDHYTLLERQIIIEANDRHLESAGQTEIFRKHPRKASILNMPLVTTLFYSCFYHYTEAEGTFSSPVNLKKTFKIPDKQYVLTALAARAKLRAWNDVDALFTTKNWLGYTKKRAPIGFHRVVEILHKNNAPVQILQEYVNLVEDVDTKLNLATKFKCHDVVIDTYRDLKDRQQLLAYRSKVDKGSAEEEKIDALLSSSQIRWKN
B2: HA-Vps33B (protein, UniProt Q9H267 1-617)
chain: MAFPHRPDAPELPDFSMLKRLARDQLIYLLEQLPGKKDLFIEADLMSPLDRIANVSILKQHEVDKLYKVENKPALSSNEQLCFLVRPRIKNMRYIASLVNADKLAGRTRKYKVIFSPQKFYACEMVLEEEGIYGDVSCDEWAFSLLPLDVDLLSMELPEFFRDYFLEGDQRWINTVAQALHLLSTLYGPFPNCYGIGRCAKMAYELWRNLEEEEDGETKGRRPEIGHIFLLDRDVDFVTALCSQVVYEGLVDDTFRIKCGSVDFGPEVTSSDKSLKVLLNAEDKVFNEIRNEHFSNVFGFLSQKARNLQAQYDRRRGMDIKQMKNFVSQELKGLKQEHRLLSLHIGACESIMKKKTKQDFQELIKTEHALLEGFNIRESTSYIEEHIDRQVSPIESLRLMCLLSITENGLIPKDYRSLKTQYLQSYGPEHLLTFSNLRRAGLLTEQAPGDTLTAVESKVSKLVTDKAAGKITDAFSSLAKRSNFRAISKKLNLIPRVDGEYDLKVPRDMAYVFGGAYVPLSCRIIEQVLERRSWQGLDEVVRLLNCSDFAFTDMTKEDKASSESLRLILVVFLGGCTFSEISALRFLGREKGYRFIFLTTAVTNSARLMEAMSEVKA

Tests used:
[1] = molecular target: T1, GFP-tagged Vps8; assay: co-IP; IP of GFP-tagged subunits from HeLa cells co-expressing HA-VIPAS39 alone (left panel) or HA-VIPAS39 and HA-Vps33B (right panel), blot for HA; lysis buffer 40 mM TRIS pH 7.4, 100 mM NaCl, 0.1% TX-100, 5 mM EDTA; also read after prolonged exposure of the blot
[2] = molecular target: T2, GFP-tagged Vps33A; assay: as above

Binder	binding [1]	binding [2]
B1	no binding	no binding
B2	no binding	no binding
